Test results as given in paper PMC10903463.

T1: WT CSP-V5-miniTurbo (human) (UniProt Q9H3Z4)
T1 sequence: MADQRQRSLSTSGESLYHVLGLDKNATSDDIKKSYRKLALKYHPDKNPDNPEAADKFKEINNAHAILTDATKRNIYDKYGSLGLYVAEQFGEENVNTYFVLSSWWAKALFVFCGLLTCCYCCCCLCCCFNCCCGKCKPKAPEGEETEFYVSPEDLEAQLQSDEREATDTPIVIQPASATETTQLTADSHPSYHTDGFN

B1: Nudcd2 (protein, UniProt Q5M823 1-157)
chain: MSAPFEERSGVVPCATPWGQWYQTLEEVFIEVQVPPGTRAQDIQCGLQSRHVALAVGGREILKGKLFDSTIADEGTWTLEDRKMVRIVLTKTKRDAANCWTSLLESEYAADPWVQDQMQRKLTLERFQKENPGFDFSGAEISGNYTKGGPDFSNLEK
B2: Esyt2 (protein, UniProt D3ZJ32 1-845)
chain: MSSAGGEGPEAGTGRAGGRSEPEAPGSALSVDLPGLLGQLARSFALLLPVYALGYLGLSFSWVLLALGLLAWCRRSRGLKASRLCRALALLEDEEQAVRLGVRACDLPAWVHFPDTERAEWLNKTVKHMWPFICQFIEKLFRETIEPAVRGANAHLSTFSFTKVDVGHQPLRVNGVKVYTENVDKRQIILDLQISFVGNCEIDLEIKRYFCRAGVKSIQIHGTMRVILEPLIGDMPLVGALSIFFLRKPLLEINWTGLTNLLDIPGLNGLSDTIILDIISNYLVLPNRITVPLVSEVQIAQLRFPIPKGVLRIHFIEAQDLQGKDTYLKGLVKGKSDPYGIIRVGNQIFQSKVVKENLSPKWNEVYEALVYEHPGQELEIELFDEDPDKDDFLGSLMIDLIEVEKERLLDEWFTLDEVPKGKLHLKLEWLTLMPDAANLDKVLADIRADKDQANDGLSSALLILYLDSARNLPSGKKINSNPNPLVQMSVGHKAQESKIRYKTSEPVWEENFTFFIHNPKRQDLEVEVKDEQHQCSLGSLRIPLSQLLASDNMTINQRFQLSNSGPNSTLKMKIALRVLHLEKQERPPDYQHSAQVKRPSVSKEGRKMPIKSQMSASPGTGGTNTAPSTPVMGVDDKPAMEEKPQPPEASPLGQRDLGRSSSSLLASPSHIAAKEPTPSIASDISLPIATQELRQRLRQLENGTTLGQSPLGQIQLTIRHSSQRNKLIVVVHSCRNLIAFSEDGSDPYVRMYLLPDKRRSGRRKTHVSKKTLNPVFDQSFDFSVSLPEVQRRTLDVAVKNSGGFLSKDKGLLGKVLVALASEELAKGWTQWYDLTEDGTRPQVIT
B3: Slc9a3r1 (protein, UniProt Q9JJ19 1-356)
chain: MSADAAAGEPLPRLCCLEKGPNGYGFHLHGEKGKVGQFIRLVEPGSPAEKSGLLAGDRLVEVNGENVEKETHQQVVSRIRAALNAVRLLVVDPETDEQLKKLGVPIREELLRAQEKSEHTEPPAAADTKKAGDQNEAEKSHLERCELRPRLCTMKKGPNGYGFNLHSDKSKPGQFIRAVDPDSPAEASGLRAQDRIVEVNGVCMEGKQHGDVVSAIKAGGDEAKLLVVDKETDEFFKKCRVTPSQEHLDGPLPEPFSNGEIQKENSREALVEPASESPRPALARSASSDTSEELNAQDSPKRHDSTEPSSTSSSSDPILDFNISLAVAKERAHQKRSSKRAPQMDWSKKNELFSNL
B4: Ctnna1 (protein, UniProt Q5U302 1-922)
chain: MVTADWTERRSKKEMTAVHTGNINFKWDPKSLEIRTLAVERLLEPLVTQVTTLVNTNSKGPSNKKRGRSKKAHVLAASVEQATENFLEKGDKIAKESQFLKEELVAAVDDVRKQGDLMKSAAGEFADDPCSSVKRGNMVRAARALLSAVTRLLILADMADVYKLLVQLKVVEDGILKLRNAGNEQDLGIQYRALKPEVDKLNIMAAKRQQELKDVGHRDQMAAARGILQKNVPILYTASQACLQHPDVAAYKANRDLIYKQLQQAVTGISNAAQATASDDASQQQGGGGGGGELAYALNNFDKQIIVDPLSFSEERFRPSLEERLESIISGAALMADSSCTRDDRRERIVAECNAVRQALQDLLSEYMGNAGRKERSDALNSAIDKMTKKTRDLRRQLRKAVMDHVSDSFLETNVPLLVLIEAAKNGNEKEVKEYAQVFREHANKLIEVANLACSISNNEEGVKLVRMSASQLEALCPQVINAALALAAKPQSKLAQENMDLFKEQWEKQVRVLTDAVDDITSIDDFLAVSENHILEDVNKCVIALQEKDVDGLDRTAGAIRGRAARVIHVVTSEMDNYEPGVYTEKVLEATKLLSNTVMPRFTEQVEAAVEALSSDPAQPMDENEFIDASRLVYDGIRDIRKAVLMIRTPEELDDSDFETEDFDVRSRTSVQTEDDQLIAGQSARAIMAQLPQEQKAKIAEQVASFQEEKSKLDAEVSKWDDSGNDIIVLAKQMCMIMMEMTDFTRGKGPLKNTSDVISAAKKIAEAGSRMDKLGRTIADHCPDSACKQDLLAYLQRIALYCHQLNICSKVKAEVQNLGGELVVSGVDSAMSLIQAAKNLMNAVVQTVKASYVASTKYQKSQGMASLNLPAVSWKMKAPEKKPLVKREKQDETQTKIKRASQKKHVNPVQALSEFKAMDSI
B5: Ctnnd1 (protein, UniProt D3ZZZ9 1-917)
chain: MDDSEVESTASILASVKEQEAQFEKLTRALEEERRHVSAQLERVRVSPQDANSLMANGTLTRRHQNGRFVGDADLERQKFSDLKLNGPQDHNHLLYSTIPRMQEPGQIVETYTEEDPEGAMSVVSVETSDDGTTRRTETTVKKVVKTMTTRTVQPVPMGPDGLPVDASAVSNNYIQTLGRDFRKNGNGGPGPYVGQAGTATLPRNFHYPPDGYGRHYEDGYPGGSDNYGSLSRVTRIEERYRPSMEGYRAPSRQDVYGPQPQVRVGGSSVDLHRFHPEPYGLEDDQRSMGYDDLDYGMMSDYGTARRTGTPSDPRRRLRSYEDMIGEEVPPDQYYWAPLAQHERGSLASLDSLRKGMPPPPNWRQPELPEVIAMLGFRLDAVKSNAAAYLQHLCYRNDKVKTDVRKLKGIPILVGLLDHPKKEVHLGACGALKNISFGRDQDNKIAIKNCDGVPALVRLLRKARDMDLTEVITGTLWNLSSHDSIKMEIVDHALHALTDEVIIPHSGWEREPNEDCKPRHIEWESVLTNTAGCLRNVSSERSEARRKLRECDGLVDALIFIVQAEIGQKDSDSKLVENCVCLLRNLSYQVHREIPQAERYQEALPSVANSTGPHAASCFGAKKGKDEWFSRGKKPTEDPANDTVDFPKRTSPARGYELLFQPEVVRIYISLLKESKTPAILEASAGAIQNLCAGRWTYGRYIRSALRQEKALSAIADLLTSEHERVVKAASGALRNLAVDARNKELIGKHAIPNLVKNLPGGQQNSSWNFSEDTVVSILNTINEVIAENLEAAKKLRETQGIEKLVLINKSGNRSEKEVRAAALVLQTIWGYKELRKPLEKEGWKKSDFQVNLNNASRSQSSHSYDDSTLPLIDRNQKSDNNYSTLNERGDHNRTLDRSGDLGDMEPLKGAPLMQKI
B6: Add1 (protein, UniProt Q63028 1-735)
chain: MNGDTRAAVVTSPPPTTAPHKERYFDRVDENNPEYLRERNMAPDLRQDFNMMEQKKRVSMILQSPAFCEELESMIQEQFKKGKNPTGLLALQQIADFMTASVPNVYPAAPQGGMAALNMSLGMVTPVNDLRGSDSIAYDKGEKLLRCKLAAFYRLADLFGWSQLIYNHITTRVNSEQEHFLIVPFGLLYSEVTASSLVKVNLQGDIVDRGSTNLGVNQAGFTLHSAIYAARPDAKCIVHIHTPAGAAVSAMKCGLLPISPEALSLGEVAYHDYHGILVDEEEKILIQKNLGPKSKVLILRNHGLVSVGESVEEAFYYIHNLVVACEIQVRTLASAGGPDNLVLLDPGKYKAKSRSPGTPAGEGSGSPPKWQIGEQEFEALMRMLDNLGYRTGYPYRYPALRERSKKYSDVEVPASVTGHSFASDGDSGTCSPLRHSFQKQQREKTRWLNSGRGDDASEEGQNGSSPKSKTKWTKEDGHRTSTSAVPNLFVPLNTNPKEVQEMRNKIREQNLQDIKTAGPQSQVLCGVMMDRSLVQGELVTASKAIIEKEYQPHVIVSTTGPNPFNTLTDRELEEYRREVERKQKGSEENLDETREQKEKSPPDQSAVPNTPPSTPVKLEGGLPQEPTSRDGSDATTSKPTPPDLSPDEPSEALAFPTVAEEAHASPDTTQPLAEADPEPASASAPGAEEVASPATEEGSPMDPGSDGSPGKSPSKKKKKFRTPSFLKKSKKKSDS
B7: ykt6 (protein, UniProt Q5EGY4 1-198)
chain: MKLYSLSVFYKGEPKAVLLKAAYDVSSFSFFQRSSVQEFMTFTSQLIVERSAKGSRASVKEQEYLCHVYVRSDSLAGVVIADSEYPSRVAFTLLEKVLDEFSKQVDRIDWPVGSPATIHYTALDGHLSRYQNPREADPMSKVQAELDETKIILHNTMESLLERGEKLDDLVSKSEVLGTQSKAFYKTARKQNSCCAIM
B8: Basp1 (protein, UniProt Q05175 1-220)
chain: MGSKLSKKKKGYNVNDEKAKDKDKKAEGAGTEEEGTQKESEPQAAADATEVKESAEEKPKDAADGEAKAEEKEADKAAAKEEAPKAEPEKSEGAAEEQPEPAPAPEQEAAAPGPAAGGEAPKAGEASAESTGAADGAPQEEGEAKKTEAPAAGPEAKSDAAPAASDSKPSTEPAPSSKETPAASEAPSSAAKAPAPAAPAAEPQAEAPVASSEQSVAVKE
B9: SNAP-29 (protein, UniProt Q9Z2P6 1-257)
chain: MSGYPKSYNPFDDDVEDEDTRPAPWKDARDLPDGPDPPIDRQQYLRQEVLRGPSATAASTSRSLFLMYESEKIGVASSEELVRQRGVLEHTEKMVDKMDQDLKMSQKHINSIKSVFGGFINYFKSKPVEPPPEQNGSIVPQPSSRLKEAINTSKDQESKYQASHPNLRRLHDAELDSVPASTVNTEVYPKNSSLRAYHQKIDSNLDELSVGLGRLKDIALGMQTEIEEQDDILDRLTTKVDKLDVNIKSTEKKVRQL
B10: Rab11B (protein, UniProt O35509 1-218)
chain: MGTRDDEYDYLFKVVLIGDSGVGKSNLLSRFTRNEFNLESKSTIGVEFATRSIQVDGKTIKAQIWDTAGQERYRAITSAYYRGAVGALLVYDIAKHLTYENVERWLKELRDHADSNIVIMLVGNKSDLRHLRAVPTDEARAFAEKNNLSFIETSALDSTNVEEAFKNILTEIYRIVSQKQIADRAAHDESPGNNVVDISVPPTTDGQKPNKLQCCQNL

Molecular target: T1, WT CSP-V5-miniTurbo (human)
Test: proximity labelling; BioID in living PC12 cells stably expressing WT or L115R CSP-V5-miniTurbo; 100 μM biotin overnight; RIPA lysis, streptavidin beads, on-bead tryptic digestion, LC-MS with label-free quantification, three biological repeats; compared with miniTurbo control and no biotin control

Row | Molecule | binding
1 | Dnajb1 (from UniProt B0K030 1-340) | binds
2 | Gnas (from UniProt Q63803 1-1144) | binds
3 | Snx3 (from UniProt Q5U211 1-162) | binds
4 | Pcdh1 (rat (endogenous in PC12)) | binds
5 | Sept6 (from UniProt B5DFG5) | binds
6 | Baiap2 (from UniProt Q6GMN2 1-535) | binds
7 | Sept8 (from UniProt B0BNF1) | binds
8 | Epb41l2 (from UniProt D3ZDT1 1-926) | binds
9 | Sept9 (from UniProt Q9QZR6) | binds
10 | Pkn2 (from UniProt O08874 1-985) | binds
11 | Yes1 (from UniProt F1LM93 1-541) | binds
12 | Clk2 (from UniProt Q5XI98) | binds
13 | Trpv2 (from UniProt Q9WUD2 1-761) | binds
14 | Atp2b4 (from UniProt Q64542-4 1-1191) | binds
15 | Sptbn1 (from UniProt G3V6S0 1-2363) | binds
16 | B1 | binds
17 | B2 | binds
18 | B3 | binds
19 | B4 | binds
20 | B5 | binds
21 | B6 | binds
22 | B7 | binds
23 | B8 | binds
24 | B9 | binds
25 | B10 | binds

Results are given in words; binding and its absence hold for the method and conditions named. In cells and extracts the contact can be indirect. Here binding means that the protein was enriched with, or labelled near, the bait; the list need not be complete. Tags and fused reporters may be left off the sequences shown.
